Source: article PMC12040169 (PLOS Biology, 2025)
This is one part of the list.

The compounds below were run on T1, CTL2-GFP (C. trachomatis L2/434/Bu, GFP-expressing). Settings: bulk GFP, single well; 28.5 h, 10 µM; inhibitor.
T1 construct: L2/434/Bu, GFP-expressing
Parameters: species or system HeLa; Intracellular C. trachomatis growth in HeLa cells, bulk GFP fluorescence relative to DMSO

First: C=CCNC(=O)[C@@H]1C=CCN1S(=O)(=O)c1ccc(Cl)cc1 [CBK284318]
Second: Cc1ccc(S(=O)(=O)N2CC(=O)NC2=S)cc1 [CBK023293]
The “% of control remaining” value of the first is higher: 126.078% for the first, 108.754% for the second.

Going from `COc1ccc(CN2C(=O)CC(c3ccccc3)C2=O)cc1` (stereo not drawn) [CBK002055] to `COc1ccc(OCC(=O)Nc2ccccc2N2CCN(S(C)(=O)=O)CC2)cc1` [CBK269177], the “% of control remaining” value falls from 172.498% to 153.586%.

Going from `CSCCN1CCCN(c2nccc(OCC3COc4ccccc4O3)n2)CC1` (stereo not drawn) [CBK083978] to `Cc1cnc(CNC(=O)N2CCN(Cc3ccccc3)CC2)cn1` [CBK155627], the “% of control remaining” value falls from 103.423% to 98.0959%.

Going from `CN1CCN(c2ncc(-c3ccc(N4CCOCC4)cc3)n3ccnc23)CC1` [CBK091226] to `Cc1ccc(C2(CN3CCN(Cc4cnc(C)n4C)CC3)CC2)cc1` [CBK282469], the “% of control remaining” value rises from 86.6158% to 128.279%.

First: CCCCc1ccc(-c2ccc(-c3cc(C(=O)O)c4cc(C)ccc4n3)o2)cc1 [CBK300528]
Second: CCCCc1ccc(NS(=O)(=O)c2ccc(C)c(C(=O)O)c2)cc1 [CBK296111]
The “% of control remaining” value of the first is higher: 106.758% for the first, 102.931% for the second.

First: O=C1c2ccccc2C(=O)N1CCc1nc2ccccc2c(=O)n1-c1nc2ccccc2s1 [CBK266358]
Second: COc1ccccc1CN(CN1C(=O)c2ccccc2C1=O)CN1C(=O)c2ccccc2C1=O [CBK265039]
The “% of control remaining” value of the first is higher: 129.748% for the first, 116.206% for the second.

Compared with `NC(=O)NC(CC(=O)N1CCOC2CCCCC21)c1cccc(Br)c1` (stereo not drawn) [CBK306299], `CC1CCC(C(=O)NC(Cc2ccccc2)C(=O)O)CC1` (stereo not drawn) [CBK287080] is higher in “% of control remaining” value: 108.232% for the first, 122.662% for the second.

Compared with `Cc1cnc(NC(=O)Cc2ccc(F)cc2)s1` [CBK288249], `CCOC(=O)CSc1nc(=O)cc(N)n1Cc1ccc(F)cc1` [CBK269938] is lower in “% of control remaining” value: 149.542% for the first, 123.245% for the second.

First: COC(=O)c1ccc(NC(=O)N(Cc2cnn(C)c2)CC(C)C)cc1Cl [CBK304387]
Second: CCOc1ccc(NC(=O)NC(CC)c2cnn(C)c2)cc1Cl (stereo not drawn) [CBK307262]
The “% of control remaining” value of the first is lower: 100.955% for the first, 111.427% for the second.

Going from `c1ccc(Oc2ccccc2-c2cc(N3CCC(N4CCCCC4)CC3)ncn2)cc1` [CBK037728] to `O=[N+]([O-])c1ccccc1S(=O)(=O)N1CCN(Cc2cccc(Oc3ccccc3)c2)CC1` [CBK264283], the “% of control remaining” value falls from 121.758% to 115.433%.

First: Cc1cc(-c2ccccc2)sc1C(=O)/C=C(\O)C(=O)O [CBK263198]
Second: COCc1cc(=O)n2ncc(-c3ccccc3)c2[nH]1 [CBK288168]
The “% of control remaining” value of the first is higher: 125.619% for the first, 91.8307% for the second.

Going from `CSc1ccc(CN(C)c2cncc(-n3cccn3)n2)cc1` [CBK298326] to `CSc1ccc(-n2ncc(-c3cccc(C(F)(F)F)c3)n2)cc1` [CBK112666], the “% of control remaining” value falls from 161.094% to 113.144%.

Going from `O=S(=O)(Nc1ccccn1)N1CCCCC1` [CBK269490] to `COc1ccc(Cl)cc1NS(=O)(=O)N1CCOCC1` [CBK269937], the “% of control remaining” value falls from 144.986% to 138.132%.

First: Cc1cc(NC(=O)c2cc([N+](=O)[O-])ccc2Cl)nc2c1c(=O)oc1ccccc12 [CBK291258]
Second: CC(C)(C)c1ccc(C(=O)NC(=S)Nc2ccc(O)c(-c3nc4cc(Cl)ccc4o3)c2)cc1 [CBK264169]
The “% of control remaining” value of the first is higher: 110.092% for the first, 100% for the second.

First: Cc1csc2c(C3CCCN(C(=O)c4ccncc4)C3)nc(C)n12 (stereo not drawn) [CBK285213]
Second: Cc1cc(C)nc(Nc2cccc(C3CCCN3C(=O)CCOc3ccccc3C)n2)n1 (stereo not drawn) [CBK286496]
The “% of control remaining” value of the first is lower: 126.407% for the first, 128.095% for the second.

Going from `Cc1cc(C)n(CCCC(=O)N2CCC3(CC2)CC(=O)N(C)C3)n1` [CBK306905] to `CC(=O)NC1(c2ccc(F)cc2)CCN(C(=O)C(C)C)CC1` [CBK283491], the “% of control remaining” value falls from 127.353% to 99.6912%.

Compared with `COCCn1c(SCCC(=O)O)nc2c1c(=O)[nH]c(=O)n2C` [CBK139751], `CN1CC[C@@H]2[C@H]1C(=O)NC[C@H](CCC(=O)NCc1cccs1)N2C` [CBK289028] is lower in “% of control remaining” value: 109.094% for the first, 85.1286% for the second.

First: O=c1c2ccccc2nc(S)n1CC(O)c1ccccc1 (stereo not drawn) [CBK288386]
Second: CC(C)n1c(=O)n(CC(=O)NCc2ccccc2)c2cccnc21 [CBK283758]
The “% of control remaining” value of the first is higher: 160.576% for the first, 102.544% for the second.

Compared with `Sc1nnc(COc2ccccc2)n1/N=C/c1ccc(-c2ccccc2)cc1` [CBK265269], `CC(OC(=O)c1ccc2c(c1)C(=O)N(c1ccc(Cl)cc1)C2=O)C(=O)c1ccccc1` (stereo not drawn) [CBK156661] is lower in “% of control remaining” value: 100.996% for the first, 81.9451% for the second.

Compared with `CCCC/C=C/c1cn2ccnc2c(Nc2cccc(OCC(=O)N(C)C)c2)n1` [CBK066185], `CC(C)[C@@H](CO)n1c(=O)[nH]c2ncc(-c3cccc(/C=C/C(=O)O)c3)nc21` [CBK065043] is higher in “% of control remaining” value: 112.067% for the first, 120.986% for the second.

Compared with `O=C(CCc1ccco1)N1CCCC1c1nc2ccccc2[nH]1` (stereo not drawn) [CBK283767], `Cc1c(C(=O)N(C)Cc2cc3ccccc3o2)nnn1C1CCNCC1` [CBK304307C] is higher in “% of control remaining” value: 97.3629% for the first, 127.39% for the second.

First: CC1=C(c2ccc(OC(C)(C)CN3CCCC3)cc2)C(C)CCC1 (stereo not drawn) [CBK012357C]
Second: COc1ccc(-c2cnn3c(N)c4c(nc23)CCC4)cc1 [CBK287987]
The “% of control remaining” value of the first is lower: 117.001% for the first, 122.226% for the second.

Going from `Cc1ccc(-n2ncc3c2NC(=O)N2CCN=C32)cc1` [CBK284345] to `Cc1ccc(C(=O)CN2CCC3(CC2)NCCc2c3[nH]c3ccc(F)cc23)cc1` [CBK039503], the “% of control remaining” value falls from 113.943% to 113.487%.

Going from `CC(C)(C)c1cc(CCC(=O)N2CCN(C(=O)CCc3cc(C(C)(C)C)c(O)c(C(C)(C)C)c3)CC2)cc(C(C)(C)C)c1O` [CBK261963] to `CS(=O)(=O)c1ccc(-c2ccc(CN3CCN(C(=O)Cc4ccc(F)cc4F)CC3)cn2)cc1` [CBK162618T], the “% of control remaining” value falls from 121.057% to 109.629%.

First: O=C(O)c1ccc2[nH]cc(CN3CCOCC3)c2c1 [CBK287081]
Second: CCC(CN1CCOCC1)NC(=O)Cc1coc2cc(C)ccc12 (stereo not drawn) [CBK282791]
The “% of control remaining” value of the first is higher: 136.578% for the first, 123.429% for the second.

Compared with `c1ccc2c(OCc3nc4c5c6c(sc5ncn4n3)CCCCC6)cccc2c1` [CBK264151], `CCN(CC)S(=O)(=O)c1cccc(-n2sc3ccccc3c2=O)c1` [CBK116501] is lower in “% of control remaining” value: 115.343% for the first, 95.6821% for the second.

Compared with `Nc1cccc(-c2cncc(NCC3CCOCC3)n2)c1` [CBK037221], `CC(C)(CO)CNc1cncc(-c2ccccc2CO)n1` [CBK066088] is higher in “% of control remaining” value: 176.855% for the first, 192.34% for the second.

Compared with `COc1ccc(Cc2c(C)nc3c(C(=O)NCC4CCCO4)cnn3c2C)cc1` (stereo not drawn) [CBK162183], `COc1ccc(C(=O)Nc2nnc[nH]2)cc1` [CBK025569] is higher in “% of control remaining” value: 111.566% for the first, 139.008% for the second.

Compared with `CC(C)[C@H](CO)n1c(=O)[nH]c2ncc(-c3ccco3)nc21` [CBK064479], `Cc1ccc(OCC(=O)NC(C)c2ccc(F)cc2F)c([N+](=O)[O-])n1` (stereo not drawn) [CBK295662] is higher in “% of control remaining” value: 136.797% for the first, 137.99% for the second.

Going from `COCCc1nc(C2CCN(C)CC2)n(Cc2ccccc2C)n1` [CBK307449] to `Cc1ccccc1C(c1cnccn1)N(C)C(=O)C1CCN(S(=O)(=O)c2cn(C)cn2)CC1` (stereo not drawn) [CBK060264], the “% of control remaining” value rises from 97.3061% to 178.447%.

Going from `COc1cc(/C=N/c2cccc3c(/N=C/c4ccc(O)c(OC)c4)cccc23)ccc1O` [CBK261224] to `COc1cc(C(=O)N2CCCC3(CCN(C(=O)Cc4c[nH]c5ccccc45)C3)C2)cc(OC)c1OC` (stereo not drawn) [CBK131601], the “% of control remaining” value rises from 11.483% to 122.558%.

First: CC(C)(Cc1ccccc1)NCC(O)COc1ccc2c(c1)C1CCC2C1 (stereo not drawn) [CBK018228C]
Second: CC(C)CCNC(=O)N(CCc1ccccc1)Cc1ccccc1 [CBK155351]
The “% of control remaining” value of the first is lower: 56.4077% for the first, 93.9011% for the second.

Compared with `COc1ncc(-c2cncc(N3CCCN(C)CC3)n2)c(OC)n1` [CBK065286], `Cc1cnn(-c2cc(N3CCC(n4cc(C5CC5)nn4)CC3)ncn2)c1` [CBK306721] is lower in “% of control remaining” value: 110.472% for the first, 70.8431% for the second.

Compared with `FC(F)(F)c1ccc(OC2CCNCC2)nc1` [CBK113287], `FC(F)(F)c1cc(-c2ccccc2)nc2onc(OCCN3CCOCC3)c12` [CBK269392] is lower in “% of control remaining” value: 124.864% for the first, 113.218% for the second.

Going from `CCCc1[nH]nc(O)c1CCc1c(Cl)cccc1Cl` [CBK081403] to `COc1ccccc1-c1nccnc1NCCCO` [CBK088971], the “% of control remaining” value rises from 103.101% to 219.979%.

First: CCN(CC)C(=O)c1ccc(NS(=O)(=O)c2cc(F)c(Br)cc2F)cc1 [CBK034388]
Second: CCc1ccccc1S(=O)(=O)N1CCOC(c2cnn(CC)c2)C1 (stereo not drawn) [CBK305421]
The “% of control remaining” value of the first is higher: 115.104% for the first, 82.4239% for the second.

First: COc1ccc(CN(Cc2ccc(OC)cc2)Cc2ccc(S(=O)(=O)N3CCOC3=O)cc2)cc1 [CBK014818]
Second: COc1ccc(CN(CCCN2CCOCC2)C(=O)NCCCN2CCCC2=O)cc1OC [CBK159180]
The “% of control remaining” value of the first is higher: 119.52% for the first, 78.0786% for the second.

First: CN(Cc1nncn1C)C(=O)c1cnc2c(c1)c(C(C)(C)C)nn2C [CBK304154]
Second: Cc1nn(C)c(C)c1OCC(=O)Nc1sc2c(c1C#N)CCC2 [CBK306374]
The “% of control remaining” value of the first is lower: 105.861% for the first, 126.088% for the second.

Going from `Cc1cccnc1NC(=O)C(C)Oc1ccccc1` (stereo not drawn) [CBK268643] to `COC(=O)CO[C@@H]1CO[C@H]2[C@@H]1OC[C@@H]2NC(=S)Nc1ccccc1` [CBK289459], the “% of control remaining” value falls from 149.802% to 121.727%.
